Measured values taken from patent US20080280824A1, “COMPOSITIONS AND METHODS FOR TREATMENT OF CANCER OR NEURODEGENERATIVE DISEASE WITH PEPTIDE BASED MICROTUBULE STABILIZERS OR INHIBITORS” (University of Washington, priority 2007, published 2008).
Some entries share one result that the patent states for a list of compounds.

The chains behind the UniProt entries cited, without tags or fusion partners.
UniProt P81947, whole entry: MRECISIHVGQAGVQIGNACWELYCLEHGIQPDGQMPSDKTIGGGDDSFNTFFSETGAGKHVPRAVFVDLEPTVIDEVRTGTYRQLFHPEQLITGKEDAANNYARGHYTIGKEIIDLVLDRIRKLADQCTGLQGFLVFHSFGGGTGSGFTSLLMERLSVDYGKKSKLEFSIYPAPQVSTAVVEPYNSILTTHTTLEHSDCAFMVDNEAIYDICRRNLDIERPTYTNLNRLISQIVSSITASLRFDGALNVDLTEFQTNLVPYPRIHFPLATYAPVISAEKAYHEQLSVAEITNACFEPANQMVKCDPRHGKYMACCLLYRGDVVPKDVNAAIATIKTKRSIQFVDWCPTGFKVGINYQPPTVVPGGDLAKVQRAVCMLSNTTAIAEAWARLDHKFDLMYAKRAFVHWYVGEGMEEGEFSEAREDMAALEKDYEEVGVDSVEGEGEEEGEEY
UniProt Q6B856, whole entry: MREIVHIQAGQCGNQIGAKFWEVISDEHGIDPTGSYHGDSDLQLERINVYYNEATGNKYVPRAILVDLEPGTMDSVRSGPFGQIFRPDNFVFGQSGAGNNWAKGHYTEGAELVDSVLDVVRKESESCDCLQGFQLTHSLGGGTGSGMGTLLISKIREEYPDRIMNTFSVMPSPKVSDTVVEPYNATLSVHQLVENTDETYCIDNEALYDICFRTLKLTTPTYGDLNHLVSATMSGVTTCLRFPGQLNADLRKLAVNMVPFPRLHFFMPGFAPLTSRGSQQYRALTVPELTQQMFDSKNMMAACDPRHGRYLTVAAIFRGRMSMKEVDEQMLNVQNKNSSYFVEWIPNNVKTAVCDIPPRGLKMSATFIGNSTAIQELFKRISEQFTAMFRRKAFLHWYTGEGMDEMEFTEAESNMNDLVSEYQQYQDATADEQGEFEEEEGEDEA

How the values were obtained:
pre-formed microtubules = experiment: Microtubule disassembly assay (DAPI fluorescence); format: biochemical, Bovine; conditions: peptide 170 μM, 34 μM pre-formed microtubules, 23° C., 20 minutes
Experimental: Microtubule disassembly assays. The effect of αB crystallin peptides and mutants on the in vitro disassembly of microtubules into soluble tubulin was evaluated using the Microtubule Stabilization/Destabilization Assay kit described above (Cytoskeleton; Denver, Colo.) as described previously^36. 34 μM pre-formed microtubules were incubated with the αB crystallin peptides (170 μM) or wt and mutant αB crystallins (6.8 μM and 34 μM) at 23° C. for 20 minutes. Incubation of microtubules at 23° C. results in the spontaneous disassembly of microtubules. The decrease in DAPI fluorescence at λ=460 nm was measured continuously for 20 minutes by exciting the samples at λ=355 nm using a Perkin Elmer Victor^3 V fluorescence plate reader.

Bovine brain tubulin [1] = experiment: Tubulin thermal aggregation assay (absorbance at 340 nm); format: biochemical; conditions: synthetic peptide; 34 μM tubulin, 52° C., 60 minutes, OD340; relative to control
Experimental: Tubulin aggregation assays. The effect of αB crystallin peptides and mutants on the thermal aggregation of tubulin was evaluated using ultra-violet spectroscopy. Bovine brain tubulin was dissolved to 200 μM in 80 mM PIPES, 2 mM MgCl2, 0.5 mM EGTA, pH 6.9. 4.25 μl of 0.08, 0.4, or 2 mM test peptide or protein was diluted into 40 μl of 80 mM PIPES, 2 mM MgCl2, 0.5 mM EGTA, pH 6.9. 8.5 μl of the 200 μM tubulin was added to each sample. Samples were heated at 52° C. and the absorbance at λ=340 nm was measured continuously for 60 minutes using a Pharmacia Biotech Ultrospec 3000. GTP and glycerol were not present in the samples because they induce the assembly of microtubules.

Bovine brain tubulin [2] = target: T1, Bovine brain tubulin (Bos taurus, UniProt P81947+Q6B856); experiment: Microtubule assembly assay (DAPI fluorescence, Microtubule Stabilization/Destabilization Assay kit); format: biochemical; conditions: synthetic peptide (4.3 μl of 2 mM); 34 μM tubulin, 37° C., 45 minutes; vs tubulin alone
T1 construct: Bovine brain tubulin was dissolved to 200 μM; purchased Cytoskeleton; Denver, Colo; host or cells: bovine brain
Experimental: Microtubule assembly assays. The effect of selected αB crystallin peptides on the in vitro assembly of tubulin into microtubules was evaluated using the Microtubule Stabilization/Destabilization Assay kit (Cytoskeleton; Denver, Colo.) as described previously. Bonne et al., J Biol Chem 260:2819-25, 1985. Bovine brain tubulin was dissolved to 200 μM in 80 mM PIPES, 2 mM MgCl2, 0.5 mM EGTA, 10 μM DAPI, 1 mM GTP pH 6.9. […] Microtubule assembly was monitored by measuring the fluorescence of DAPI, a molecule whose emission fluorescence at λ=460 is enhanced 8-fold when it is incorporated into assembled microtubules. […] Fluorescence of samples were continuously read on a Perkin Elmer Victor^3 V fluorescence plate reader (Excitation λ=355 nm, Emission λ=460 nm) at 37° C. for 45 minutes.
The effect of wt and three mutant αB crystallins, Δ41-58, αAβ8, and Δ155-165 on the in vitro assembly of tubulin into microtubules was evaluated using the Microtubule Stabilization/Destabilization Assay kit described above (Cytoskeleton; Denver, Colo.). […] Fluorescence of samples were continuously read on a Perkin Elmer Victor^3 V fluorescence plate reader (Excitation λ=355 nm, Emission λ=460 nm) at 37° C. for 45 minutes.

With FISREFHR the “inhibition of microtubule disassembly” value (pre-formed microtubules; listed as 113FISREFHR120) was 26-36% and the “decrease of thermal aggregation of tubulin” value (shortened to “decrease”) (Bovine brain tubulin [1]) was 42-44%.
For LTITSSLSSDGV, the “increase of microtubule assembly” value (Bovine brain tubulin [2]) was 34-45% and the “decrease” value (Bovine brain tubulin [1]) was 42-44%.
For DRFSVNLDVKHFS, the “decrease” value (Bovine brain tubulin [1]) was 8-27%.
With STSLSPFYLRPPSFLRAP the “decrease” value (Bovine brain tubulin [1]) was 8-27%.
For “ERTIPITRE [synthetic peptide of human αB crystallin C-terminal extension, residues 156-164]”, the “increase of microtubule assembly” value (Bovine brain tubulin [2]) was 34-45%, the “inhibition of microtubule disassembly” value (pre-formed microtubules; listed as 156ERTIPITRE164) was 26-36% and the “decrease” value (Bovine brain tubulin [1]) was 8-27%.
